PubChem BioAssay AID1671195 – Yale University | 2021
In all, the deposit lists about 22,000 reagents; shown is a random part of them. About 1,510 of all reagents (6.9%) were called active. 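Active includes knockdowns raising or lowering LDL uptake; positive z-scores mean more uptake, negative mean less.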 Reagent sequences are not shown.

Screen: 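Knockdowns that increase or decrease uptake of fluorescent LDL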 (primary screen)
Cells: human Huh7 hepatoma cells
Reagent: siRNA pool against human genes, 18 nM
Duration: about 2 to 2.5 days of knockdown, then 8 h LDL uptake
Treatment: DiI-labelled LDL at 30 µg/ml for 8 h, in lipoprotein-deficient serum medium
Detection: 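Fluorescent LDL signal imaged in cells, scaled to the plate median, robust z-score for each replicate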
Scale: robust z-score: higher = more LDL uptake after knockdown
Rule for the call: 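Active when two or more replicates show a robust z-score above 2 or below -2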

gene symbol,"robust z-score, replicate 1","robust z-score, replicate 2","robust z-score, replicate 3",outcome
PDE7B,0.807,0.419,0.716,inactive
ZDHHC19,-0.0789,0.972,0.551,inactive
SBSPON,-0.346,0.448,-0.554,inactive
EIF4A2P4,-0.87,-0.948,-1.02,inactive
IP6K3,0.267,-0.0201,0.239,inactive
SLC6A20,0.929,1.57,0.278,inactive
TMEM42,0.855,-0.586,0.571,inactive
TMEM140,-1.28,-0.886,-1.55,inactive
DGKZ,-0.566,0.109,0.211,inactive
TBC1D22B,-2.69,-1.55,-0.903,inactive
CXADR,3.47,3,3.33,active
RNF44,-0.116,-1.03,-0.784,inactive
LOC387950 (retired record),0.573,0.679,0.707,inactive
MOSPD3,0.893,0.23,0.829,inactive
PDCD2,-0.134,-0.0764,-0.143,inactive
ASCC1,-1.17,-1.6,-0.922,inactive
CENPBD2P,-0.933,-0.814,-1.12,inactive
HMGXB4,0.708,-0.785,0.339,inactive
TCAP,1.06,1.56,1.97,inactive
LINC02433,0.0487,-0.017,-0.255,inactive
STK25,-1.35,-1.47,-1.12,inactive
ZNF473,-0.169,-0.0123,0.374,inactive
LMNA,0.236,-0.153,-0.515,inactive
LINC02649,0.101,-0.0251,-0.895,inactive
RAB24,-0.61,-0.536,0.227,inactive
RASL12,0.965,-1.08,-1.06,inactive
PRELID3A,0.222,-0.31,1.1,inactive
RBM10,-0.755,0.358,-1.11,inactive
ZNF790,-0.352,-0.123,-0.446,inactive
PJA2,0.348,-1.27,-1.79,inactive
NBPF12,-0.766,-0.552,-0.869,inactive
MYBPC3,-0.694,-0.131,-0.00429,inactive
PCDHGB2,-1.91,-1.67,-1.68,inactive
CFAP300,0.673,0.796,0.457,inactive

The list goes on (6 carried over from the part before).
gene symbol,"robust z-score, replicate 1","robust z-score, replicate 2","robust z-score, replicate 3",outcome
ZNF790,-0.352,-0.123,-0.446,inactive
PJA2,0.348,-1.27,-1.79,inactive
NBPF12,-0.766,-0.552,-0.869,inactive
MYBPC3,-0.694,-0.131,-0.00429,inactive
PCDHGB2,-1.91,-1.67,-1.68,inactive
CFAP300,0.673,0.796,0.457,inactive
UBE2E2,0.3,0.51,-0.057,inactive
GPT2,-0.0558,1.18,-0.157,inactive
ASMTL-AS1,-1.4,-1.45,-1.27,inactive
RNASEH2C,2.64,2.57,2.77,active
ACTR2P2,4.08,3.97,2.74,active
RGS20,-0.427,-0.825,-0.698,inactive
POLR2J,-1,-1.52,-0.959,inactive
RIOK1,-0.513,-0.755,-0.626,inactive
LOC93463,0.651,0.656,-0.0359,inactive
KISS1R,1.6,0.574,0.754,inactive
H4C8,1.34,1.96,1.57,inactive
E4F1,-0.92,-0.679,-0.513,inactive
KRT17,-1.15,-0.341,-0.854,inactive
ZNHIT6,-1.56,0.352,-1.6,inactive
SFT2D3,-0.858,-1.2,-0.322,inactive
ATP6V1A,0.553,0.49,1.09,inactive
CRACDL,1.76,1.97,2.33,active
DEFB104A,2.28,0.462,1.71,inactive
PTX3,2.19,1.31,1.95,active
LOC440336 (retired record),2.95,1.86,2.41,active
TMEM236,-0.295,-0.391,-0.00295,inactive
TUBG1,-0.563,-1.17,-0.525,inactive
DLGAP3,0.85,0.291,0.27,inactive
GINM1,1.21,1.74,2.55,inactive
TLCD3A,0.767,1.31,1.25,inactive
RAD9B,0.952,-0.0665,1.15,inactive
RPS12P8,0.214,0.124,-0.171,inactive
LYZ,1.12,1.83,0.912,inactive
CCKBR,0.27,-0.137,-0.016,inactive
MYRFL,-0.684,-0.443,0.93,inactive
RHBDL1,-2.05,-1.75,-1.89,inactive
DNMT1,-0.0594,2.12,0.029,inactive
PPP3CC,-0.146,-0.659,0.18,inactive
RUNDC1,-0.0011,1.21,-0.308,inactive
